According to patent US10487094B1, “Bergenin thiodipropionic acid ester with antioxidant activity and a method of improving the antioxidant property of ganoderma lucidum spore oil using the same” (SHAANXI UNIVERSITY OF SCIENCE AND TECHNOLOGY, priority 2018, dated 2019):

Experiment: DPPH radical scavenging activity of sample and control solutions
Format: biochemical
Details: solution + DPPH, 517 nm
Text: In the DPPH molecule, due to the presence of multiple electron-withdrawing —NO2 and large π bonds of the benzene ring, nitrogen free radical is stabilized. Its methanol solution is purple and has a maximum absorption peak at 517 nm. After the addition of an antioxidant, DPPH captures an electron to be paired with the free electron, and the purple fades and turns into a yellow substance. The absorption at 517 nm disappears, and the degree of fading is quantitatively related to the number of electrons it captures. Based on this principle, a spectrophotometer is used to detect the change of the absorbance of the DPPH radical and the sample solution, and the ability of the sample to provide hydrogen atoms and scavenge free radicals can be measured.
Preparation of DPPH Solution: Measuring Exact Amount of 1,1-diphenyl-2-picryl hydrazyl (DPPH) and dissolving in methanol to prepare a 0.2 mmol/L DPPH Solution, Stored at 0° C. in Dark
Preparation of sample solutions: Vitamin C (positive control), bergenin thiodipripionic acid ester (sample), bergenin (control), thiodipropionic acid (control), mixture of bergenin and thiodipropionic acid (control). The sample solution was serially diluted with acetonitrile, and four groups of controls were separately dissolved in a test tube with a certain amount of methanol to prepare the same concentration gradient as the sample. Four corresponding groups of control solutions were prepared in the same way.
2 mL of the sample solution (Table 1: B), 2 mL 0.2 mmol/L DPPH solution was added, the mixture was mixed and reacted at room temperature in dark for 30 minutes, and methanol was then added to adjust final volume. The absorbance Ai was measured at 517 nm. 2 mL control solution and 2 mL methanol were mixed, and the absorbance Aj was measured. 2 mL DPPH solution and 2 mL methanol were mixed, and the absorbance A0 was measured.
2 mL of the control solutions (Table 1: C, D, E), 2 mL 0.2 mmol/L DPPH solution was added, the mixture was mixed and reacted at room temperature in dark for 30 minutes, and methanol was then added to adjust final volume. The absorbance Ai was measured at 517 nm. 2 mL control solution and 2 mL methanol were mixed, and the absorbance Aj was measured. 2 mL DPPH solution and 2 mL methanol were mixed, and the absorbance A0 was measured. The scavenging activity of the sample solution and control solutions is calculated according to the following calculation formula. Scavenging activity (%)=[1−(Ai−Aj)/Ao]*100%

| Structure (SMILES) | Absorbance Ai (0.04 mg/ml) | Absorbance Ai (0.08 mg/ml) | Absorbance Ai (0.16 mg/ml) | Absorbance Ai (0.83 mg/ml) | Absorbance Ai (1.66 mg/ml) | Absorbance Ai (8.28 mg/ml) | Absorbance Ai (16.56 mg/ml) | Absorbance Ai (24.84 mg/ml) | Absorbance Ai (33.12 mg/ml) |
| --- | --- | --- | --- | --- | --- | --- | --- | --- | --- |
| COc1c(O)cc2c(c1O)C1OC(COC(=O)CCSCCC(=O)OCC3OC4c5c(cc(O)c(OC)c5O)C(=O)OC4C(O)C3O)C(O)C(O)C1OC2=O (stereo not drawn) [B, bis((3,4,8,10-tetrahydroxy-9-methoxy-6-oxo-2,3,4,4a,6,10b-hexahydropyrano[3,2-c]isochromen-2-yl)methyl) 3,3′-thiodipropionate] | 0.651 | 0.563 | 0.441 | 0.360 | 0.261 | 0.158 | 0.043 | 0.038 | 0.035 |
| COc1c(O)cc2c(c1O)[C@@H]1O[C@H](CO)[C@@H](O)[C@H](O)[C@H]1OC2=O [C, Bergenin] | 0.935 | 0.898 | 0.820 | 0.762 | 0.595 | 0.420 | 0.046 | 0.046 | 0.041 |
| O=C(O)CCSCCC(=O)O [D, Thiodipropionic acid] | 0.858 | 0.798 | 0.795 | 0.793 | 0.792 | 0.782 | 0.771 | 0.760 | 0.747 |
